Taken from: PubChem BioAssay AID1259405 (NCATS, 2018)

- Test: 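Mouse-designed siRNAs used to find CHO productivity engineering targets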 (primary screen)
- System: Chinese hamster CHO-K1 ovary cells with stable secreted eGFP expression
- Reagent: single siRNA against mouse genes, 0.8 pmol siRNA per well (2 µl of 400 nM stock)
- Duration: 3 days
- Measurement: 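Percent of the per-plate non-targeting control median for intracellular GFP per well by laser scanning cytometry and for cell viability by ATP luminescence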
- Direction: GFP, % of control: higher = more GFP per well, higher productivity; viability (ATP), % of control: higher = more viable cells (more ATP)
- Active means: 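a knock-down is called active if GFP reaches 120% or more of non-targeting control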
This is an unselected part of about 50,000 reagents. About 4,000 of them (8%) count as active. 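Mouse siRNA library applied to hamster cells; one well for each siRNA.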 Reagents against one gene are numbered here. Reagent sequences are not shown.

target gene	reagent no.	GFP, % of control	viability (ATP), % of control	call
Lrfn4 (GeneID 225875)	1	102	98.5	inactive
Lrfn4 (GeneID 225875)	2	98.7	85.9	inactive
Lrfn4 (GeneID 225875)	3	72.3	54.7	inactive
Dema1 (GeneID 67358)	1	98.8	107	inactive
Dema1 (GeneID 67358)	2	162	65.6	active
Dema1 (GeneID 67358)	3	84.8	66.1	inactive
Itgb6 (GeneID 16420)	1	90.9	73	inactive
Itgb6 (GeneID 16420)	2	94.4	66.9	inactive
Itgb6 (GeneID 16420)	3	81.3	87.6	inactive
Fgd6 (GeneID 13998)	1	76.1	61.5	inactive
Fgd6 (GeneID 13998)	2	64.9	76.6	inactive
Fgd6 (GeneID 13998)	3	47.4	53.6	inactive
Sorcs3 (GeneID 66673)	1	87.1	106	inactive
Sorcs3 (GeneID 66673)	2	78.1	85.4	inactive
Sorcs3 (GeneID 66673)	3	57.3	79.8	inactive
D830014E11Rik (GeneID 320751)	1	75.6	91.7	inactive
D830014E11Rik (GeneID 320751)	2	65.6	78.7	inactive
D830014E11Rik (GeneID 320751)	3	106	60.5	inactive
Abhd15 (GeneID 67477)	1	83.7	76.6	inactive
Abhd15 (GeneID 67477)	2	83.7	69.2	inactive
Abhd15 (GeneID 67477)	3	90	69.7	inactive
Vmn1r73 (GeneID 171237)	1	56.8	42.1	inactive
Vmn1r73 (GeneID 171237)	2	59.5	48.1	inactive
Vmn1r73 (GeneID 171237)	3	43.7	48.5	inactive
Vps37a (GeneID 52348)	1	66.9	67.7	inactive
Vps37a (GeneID 52348)	2	53.1	56.1	inactive
Vps37a (GeneID 52348)	3	79.3	49.3	inactive
Snx32 (GeneID 225861)	1	72.2	74.9	inactive
Snx32 (GeneID 225861)	2	54.7	53.3	inactive
Snx32 (GeneID 225861)	3	121	75.5	active
Unc119b (GeneID 106840)	1	30.4	45.5	inactive
Unc119b (GeneID 106840)	2	84.1	87.9	inactive
Unc119b (GeneID 106840)	3	73.4	78.9	inactive
Prkcg (GeneID 18752)	1	42	33.6	inactive
Prkcg (GeneID 18752)	2	83.4	101	inactive
Prkcg (GeneID 18752)	3	46.3	39	inactive
Tulp1 (GeneID 22157)	1	115	63.3	inactive
Tulp1 (GeneID 22157)	2	101	93.1	inactive
Tulp1 (GeneID 22157)	3	107	101	inactive
Mon2 (GeneID 67074)	1	74.9	58.6	inactive
Mon2 (GeneID 67074)	2	94.8	97	inactive
Mon2 (GeneID 67074)	3	41.9	38.5	inactive
Cachd1 (GeneID 320508)	1	93.2	99.5	inactive
Cachd1 (GeneID 320508)	2	83.7	94.1	inactive
Tbl1xr1 (GeneID 81004)	1	55.7	39.1	inactive
Tbl1xr1 (GeneID 81004)	2	100	79	inactive
Tbl1xr1 (GeneID 81004)	3	93.8	122	inactive
Stx1a (GeneID 20907)	1	84.3	96.2	inactive
Stx1a (GeneID 20907)	2	73.8	69.9	inactive
Zfp111 (GeneID 56707)	1	106	111	inactive
Zfp111 (GeneID 56707)	2	127	78	active
Zfp111 (GeneID 56707)	3	46.9	49.1	inactive
Sf3b5 (GeneID 66125)	1	59.5	72.8	inactive
Sf3b5 (GeneID 66125)	2	46.1	55.3	inactive
Sf3b5 (GeneID 66125)	3	97.5	66.7	inactive
Ctbs (GeneID 74245)	1	111	98.3	inactive
Ctbs (GeneID 74245)	2	120	111	inactive
Ctbs (GeneID 74245)	3	72.9	63.2	inactive
A730018C14Rik (GeneID 100504733)	1	78.9	91	inactive
A730018C14Rik (GeneID 100504733)	2	37.6	33.7	inactive
A730018C14Rik (GeneID 100504733)	3	50.3	56	inactive
Rhbdl2 (GeneID 230726)	1	71	68.8	inactive
Rhbdl2 (GeneID 230726)	2	100	89.4	inactive
Rhbdl2 (GeneID 230726)	3	85.2	95.8	inactive
Cox11 (GeneID 69802)	1	71.1	101	inactive
Cox11 (GeneID 69802)	2	80.6	106	inactive
Cox11 (GeneID 69802)	3	65.9	81.4	inactive
Pold3 (GeneID 67967)	1	39.8	90.9	inactive
Pold3 (GeneID 67967)	2	102	89.7	inactive
Fbxo3 (GeneID 57443)	1	69	77.4	inactive
Fbxo3 (GeneID 57443)	2	67.6	77.4	inactive
Fbxo3 (GeneID 57443)	3	76	55.3	inactive
Smad9 (GeneID 55994)	1	39.1	63.1	inactive
Smad9 (GeneID 55994)	2	83.2	77	inactive
Smad9 (GeneID 55994)	3	149	39.6	active
Uaca (GeneID 72565)	1	86.6	56	inactive
Uaca (GeneID 72565)	2	96.8	50.7	inactive
Uaca (GeneID 72565)	3	108	112	inactive
Ipo7 (GeneID 233726)	1	41.2	72.4	inactive
Ipo7 (GeneID 233726)	2	49.8	69.3	inactive
Ipo7 (GeneID 233726)	3	55.3	71.3	inactive
Rnase4 (GeneID 58809)	1	48	69.5	inactive
Rnase4 (GeneID 58809)	2	83.5	88.6	inactive
Rnase4 (GeneID 58809)	3	64.8	70.8	inactive

Limited to “GFP, % of control” (14 entries from above):
Snx32 (GeneID 225861) #1 = 72.2
Snx32 (GeneID 225861) #2 = 54.7
Snx32 (GeneID 225861) #3 = 121
Unc119b (GeneID 106840) #1 = 30.4
Unc119b (GeneID 106840) #2 = 84.1
Unc119b (GeneID 106840) #3 = 73.4
Prkcg (GeneID 18752) #1 = 42
Prkcg (GeneID 18752) #2 = 83.4
Prkcg (GeneID 18752) #3 = 46.3
Tulp1 (GeneID 22157) #1 = 115
Tulp1 (GeneID 22157) #2 = 101
Tulp1 (GeneID 22157) #3 = 107
Mon2 (GeneID 67074) #1 = 74.9
Mon2 (GeneID 67074) #2 = 94.8
